The other results are listed elsewhere or left out.

Chains of the proteins cited; added tags and fusions are not shown.
UniProt Q0JBA9, entry or part of it: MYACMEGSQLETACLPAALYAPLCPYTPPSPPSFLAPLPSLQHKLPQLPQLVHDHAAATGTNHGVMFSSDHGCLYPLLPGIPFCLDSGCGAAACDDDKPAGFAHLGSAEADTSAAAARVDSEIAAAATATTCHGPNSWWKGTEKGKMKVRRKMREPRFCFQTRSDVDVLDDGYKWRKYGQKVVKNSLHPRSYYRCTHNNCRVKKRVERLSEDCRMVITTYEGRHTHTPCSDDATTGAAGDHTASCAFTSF

The assay deals with OsWRKY34 (Oryza sativa, UniProt Q0JBA9 1-250). As to the kind of experiment: protein-binding microarray (RPBM); PBS, 2% BSA, 51.3 ng/ul salmon testes DNA, 50 uM zinc acetate, 200 nM TF, 25 C, 1 h; high values mean tight binding. The note with it: protein: recombinant; tags: N-terminal polyhistidine and DsRed monomer fusion (pET32a); label: CyDye5-dUTP incorporated in the synthesized complementary strand; 3' TTTTT single-stranded linker to array surface; dsDNA, one strand shown. In outline:
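In PBS with 2% BSA, salmon testes DNA and 50 µM zinc acetate, 200 nM protein was incubated on a custom Agilent array at 25 °C for 1 h and then washed off. The array had been made double-stranded by primer extension with Cy5-dUTP and blocked with 2% BSA. The proteins were transcription factors fused N-terminally to polyhistidine and DsRed, expressed in E. coli BL21-CodonPlus and purified on Ni–NTA. The binding signal is per-feature fluorescence intensity (arbitrary units) from an Axon 4000B scanner.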
Regarding “TATTTGGTTCCATTTGCTAATGTTTAGCCCTCACCTTTTACGGAGTCACCTAGTGCAG”, the binding signal was 12700 fluorescence intensity (a.u.).

Take “TTTGCAAGTCATTGTTATCTTCATCTTCCACCTCCAAAACCGGAGTCACCTAGTGCAG”: the binding signal was 11000 fluorescence intensity (a.u.).

Regarding “TCGGTTTGTTTTTTTCCGGTTTATCTTCTTTCGGTTTTTTCGGAGTCACCTAGTGCAG”, the binding signal is 18500 fluorescence intensity (a.u.).

Regarding “GTGTTCGGATGCCATTTTTCTCATCTCATCTCTCTCGTTTCGGAGTCACCTAGTGCAG”, the binding signal was 9400 fluorescence intensity (a.u.).

With “TAATGTCATCTTCCCGTAGATTCTCACTCTTCAAGTCTCACGGAGTCACCTAGTGCAG”, the binding signal was 10000 fluorescence intensity (a.u.).

For the sequence “AGACGTGTGATTATATGCTTTTGTATTTGTTTTTTTTATCCGGAGTCACCTAGTGCAG”, the binding signal is 12600 fluorescence intensity (a.u.).

Regarding “AATGGTGCAATACAATTTCAAGCGTATCACTGTTGTTCCTCGGAGTCACCTAGTGCAG”, the binding signal was 9720 fluorescence intensity (a.u.).

Turning to “TGGTCCTTAGCCTAGCTCATTGGTTGATCCTCCAATACCGCGGAGTCACCTAGTGCAG”, the binding signal was 8340 fluorescence intensity (a.u.).

As to “CTGCACCACCGCTTTTTAGGCCCTCCTCCGTGTTGTCCGACGGAGTCACCTAGTGCAG”, the binding signal is 8820 fluorescence intensity (a.u.).

For “CCCATGTTGTTCCGCGGACTTCTCGCTTGGGCTGTCGGGTCGGAGTCACCTAGTGCAG”, the binding signal was 8310 fluorescence intensity (a.u.).

With “ATGTAATTCTGACTATTTTGTTTTTTAACCCAAGCGAATTCGGAGTCACCTAGTGCAG”, the binding signal was 8580 fluorescence intensity (a.u.).

As for “CATGCCTTACGGTTTTTCTTTTTTTTTTTCCCGGAATTGCCGGAGTCACCTAGTGCAG”, the binding signal was 9060 fluorescence intensity (a.u.).

Regarding “CGAGACTAGGTAGCAAATATCATTTTCCGTTTAATTTCACCGGAGTCACCTAGTGCAG”, the binding signal is 10800 fluorescence intensity (a.u.).

For “TATTTTTGGGTTGGGTTTGGGTTGGGTTGGGTCGAGTTGGCGGAGTCACCTAGTGCAG”, the binding signal was 26100 fluorescence intensity (a.u.).

Turning to “ACGTATATTATCATTATGTTTTTTTCACCCGTTGCAAACACGGAGTCACCTAGTGCAG”, the binding signal was 11100 fluorescence intensity (a.u.).

In the case of “TGGGTTTCTCAGCTTCTGGCTTCTAGTTCATTTTCTGGATCGGAGTCACCTAGTGCAG”, the binding signal was 10600 fluorescence intensity (a.u.).

“GGGTGGCAGTGGCGCCGAGGACGCACGCCACGTGTTTGACCGGAGTCACCTAGTGCAG”: the binding signal was 8510 fluorescence intensity (a.u.).

In the case of “CCAATTGTTTTCCTCTCTGTGTGTTTTGCTCATGTTTTGTCGGAGTCACCTAGTGCAG”, the binding signal is 16000 fluorescence intensity (a.u.).

“GCACCGTAGCAACTACTCCAGCAACTGTGTTTTCAATTCTCGGAGTCACCTAGTGCAG”: the binding signal was 11300 fluorescence intensity (a.u.).

For “TTTTTTTGTGCAGTTTTTTCTCCTTTTTGATTTTGATTTTCGGAGTCACCTAGTGCAG”, the binding signal was 9480 fluorescence intensity (a.u.).

As for “TCACCCCGCCGCCGCCATCCAGGCGCCGACGACCTCCCATCGGAGTCACCTAGTGCAG”, the binding signal was 8840 fluorescence intensity (a.u.).

“GCAGATGCAGTCACATGTTCTTTTCTCTCTCATCACCATGCGGAGTCACCTAGTGCAG”: the binding signal was 8780 fluorescence intensity (a.u.).

Consider “TGTGGGATGGATTTGTGGTGATTGAGAGGGTTTGAAAGGGCGGAGTCACCTAGTGCAG”, for which the binding signal was 9590 fluorescence intensity (a.u.).

Consider “ACATGTCAGCTCTCTCTCACTCACTCTTCTTATCTCAATCCGGAGTCACCTAGTGCAG”, for which the binding signal is 13100 fluorescence intensity (a.u.).

In the case of “CTGGTTTTTCGCGCGCACGCTTTTCAAACTGCTAAACGGTCGGAGTCACCTAGTGCAG”, the binding signal was 8930 fluorescence intensity (a.u.).

Consider “CATCGCATTTCTTCCAACAGATTTGATGACTCCTTTTTACCGGAGTCACCTAGTGCAG”, for which the binding signal was 9690 fluorescence intensity (a.u.).

Turning to “CGGTCCACCCTGAACTCCACGGTCCCACACCTCACCCAGTCGGAGTCACCTAGTGCAG”, the binding signal was 9320 fluorescence intensity (a.u.).

For “ACCCACATGGGTCCCACATGTCATCCTCACTCCTCATTTCCGGAGTCACCTAGTGCAG”, the binding signal is 12700 fluorescence intensity (a.u.).

With “CTGTCAAATTTTGTTCCTCATATACTCTGCCATCCATTGCCGGAGTCACCTAGTGCAG”, the binding signal was 8200 fluorescence intensity (a.u.).

In the case of “TGGGCTGGCTGCTAAGATGACTTTTCTACTCCAGCCATGTCGGAGTCACCTAGTGCAG”, the binding signal was 8450 fluorescence intensity (a.u.).

“ATTTATAGGTTTTGCACGTGTTGTCCAAATGTGATCCTTTCGGAGTCACCTAGTGCAG”: the binding signal is 8100 fluorescence intensity (a.u.).

For “CGCCGCCGCTCCCGCCACCGCCACATCCCTTGCCGGTGATCGGAGTCACCTAGTGCAG”, the binding signal is 9700 fluorescence intensity (a.u.).

On to “TGCGGATGGGATGGAGAGCGCAGGAGGGGTGGGTTGTTGTCGGAGTCACCTAGTGCAG”, for which the binding signal is 10800 fluorescence intensity (a.u.).

Consider “GCTACAGGACCACATCGCCAGCGGCCACCTCTCCCGCGCTCGGAGTCACCTAGTGCAG”, for which the binding signal was 8740 fluorescence intensity (a.u.).

As to “ATTAGTCACACGCACTCACACCAACATTCACACAAACTCTCGGAGTCACCTAGTGCAG”, the binding signal was 8170 fluorescence intensity (a.u.).

Regarding “ACGCTCCACTCCCGTGATCATCACCTCCTTCCCTTTCCAGCGGAGTCACCTAGTGCAG”, the binding signal is 8430 fluorescence intensity (a.u.).

As to “GTTTATCCGTGGGTAAAAACCCTATTAGGGTTGGGTTTGTCGGAGTCACCTAGTGCAG”, the binding signal is 9890 fluorescence intensity (a.u.).

For the sequence “AGCAGTTAACCCACCGTACAACAAAATCAATCAGTTTCTTCGGAGTCACCTAGTGCAG”, the binding signal was 8270 fluorescence intensity (a.u.).

With “AGCACCGGTGGCAGCGGCGGACCGTGGAGGGAGGGAGGGGCGGAGTCACCTAGTGCAG”, the binding signal was 9770 fluorescence intensity (a.u.).

In the case of “GGCTGGTTTGACCGCACATATACCGCCGGTTTGACCAACTCGGAGTCACCTAGTGCAG”, the binding signal is 10600 fluorescence intensity (a.u.).

In the case of “GTCACTCGCACCCAGCTTGCTCGCTCGCTTGATCGACACACGGAGTCACCTAGTGCAG”, the binding signal was 8160 fluorescence intensity (a.u.).

On to “TTGTTGTAATTATGTCATCGGTTTGTATTTAGTACCATATCGGAGTCACCTAGTGCAG”, for which the binding signal is 8050 fluorescence intensity (a.u.).

Values taken from publication PMC7819943, “Rice protein-binding microarrays: a tool to detect cis-acting elements near promoter regions in rice”.
